Data on 9 substances can be found in PMC11034981.

Amino acid sequences for entries named in this document (tags omitted). A change or cut given only in a name is not applied to a line headed by its entry. Chains listed by the source or under a name are the forms on record and can include a tag or linker.
UniProt Q9VSR3: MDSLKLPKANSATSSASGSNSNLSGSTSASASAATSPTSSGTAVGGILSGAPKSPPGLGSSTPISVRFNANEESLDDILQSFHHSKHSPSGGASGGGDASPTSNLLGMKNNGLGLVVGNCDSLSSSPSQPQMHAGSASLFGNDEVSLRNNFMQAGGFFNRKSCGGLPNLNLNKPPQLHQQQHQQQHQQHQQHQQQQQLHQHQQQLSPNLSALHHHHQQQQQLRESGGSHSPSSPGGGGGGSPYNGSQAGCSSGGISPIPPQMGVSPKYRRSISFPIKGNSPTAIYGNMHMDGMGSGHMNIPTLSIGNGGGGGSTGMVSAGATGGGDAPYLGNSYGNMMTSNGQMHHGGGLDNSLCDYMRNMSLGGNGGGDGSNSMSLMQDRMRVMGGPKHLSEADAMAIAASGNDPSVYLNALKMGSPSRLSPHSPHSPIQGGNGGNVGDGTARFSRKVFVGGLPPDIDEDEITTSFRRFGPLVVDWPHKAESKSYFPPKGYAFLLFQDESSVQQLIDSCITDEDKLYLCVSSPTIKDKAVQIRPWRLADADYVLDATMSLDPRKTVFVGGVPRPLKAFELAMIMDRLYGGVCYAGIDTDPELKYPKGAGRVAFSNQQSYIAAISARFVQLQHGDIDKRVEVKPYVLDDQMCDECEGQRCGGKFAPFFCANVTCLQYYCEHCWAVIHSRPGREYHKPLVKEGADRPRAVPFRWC
Orb2A-His (Q9VSR3-2, form named): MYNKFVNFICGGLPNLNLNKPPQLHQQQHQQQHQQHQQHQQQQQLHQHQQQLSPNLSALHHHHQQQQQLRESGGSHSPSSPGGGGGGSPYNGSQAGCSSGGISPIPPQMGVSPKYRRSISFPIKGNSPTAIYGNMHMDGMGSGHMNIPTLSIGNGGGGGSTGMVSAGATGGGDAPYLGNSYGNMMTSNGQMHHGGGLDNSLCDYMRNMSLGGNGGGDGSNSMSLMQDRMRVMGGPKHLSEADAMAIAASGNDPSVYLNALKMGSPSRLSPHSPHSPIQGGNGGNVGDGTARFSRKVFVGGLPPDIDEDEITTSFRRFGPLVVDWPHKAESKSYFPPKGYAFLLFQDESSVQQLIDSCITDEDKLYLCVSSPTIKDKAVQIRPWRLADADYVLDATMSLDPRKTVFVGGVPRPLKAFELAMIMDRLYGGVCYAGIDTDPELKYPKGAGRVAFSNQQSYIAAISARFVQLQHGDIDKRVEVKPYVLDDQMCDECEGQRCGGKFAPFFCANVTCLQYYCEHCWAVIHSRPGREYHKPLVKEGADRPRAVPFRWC
UniProt Q7JUZ6: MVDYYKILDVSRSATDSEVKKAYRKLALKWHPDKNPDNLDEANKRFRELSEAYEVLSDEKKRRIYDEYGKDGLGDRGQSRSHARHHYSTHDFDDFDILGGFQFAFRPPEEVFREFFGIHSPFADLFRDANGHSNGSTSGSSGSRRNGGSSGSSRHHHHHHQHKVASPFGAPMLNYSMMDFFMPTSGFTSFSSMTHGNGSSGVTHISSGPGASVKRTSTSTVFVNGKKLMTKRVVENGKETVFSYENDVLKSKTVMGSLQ
UniProt Q9VNW0: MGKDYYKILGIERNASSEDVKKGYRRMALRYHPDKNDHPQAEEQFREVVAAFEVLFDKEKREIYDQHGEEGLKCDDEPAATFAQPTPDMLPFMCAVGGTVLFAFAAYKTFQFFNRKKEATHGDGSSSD
UniProt Q9VFV9: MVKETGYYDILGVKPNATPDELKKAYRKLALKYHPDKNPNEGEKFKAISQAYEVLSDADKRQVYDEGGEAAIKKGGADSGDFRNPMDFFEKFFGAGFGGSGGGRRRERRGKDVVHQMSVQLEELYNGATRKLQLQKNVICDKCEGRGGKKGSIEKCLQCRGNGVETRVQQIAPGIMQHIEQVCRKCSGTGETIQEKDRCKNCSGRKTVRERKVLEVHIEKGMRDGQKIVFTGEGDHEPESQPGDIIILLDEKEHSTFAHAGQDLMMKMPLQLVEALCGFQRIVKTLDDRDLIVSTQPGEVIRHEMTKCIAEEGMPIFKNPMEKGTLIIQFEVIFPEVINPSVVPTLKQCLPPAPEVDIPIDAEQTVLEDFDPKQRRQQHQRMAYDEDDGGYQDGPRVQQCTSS
UniProt P11147: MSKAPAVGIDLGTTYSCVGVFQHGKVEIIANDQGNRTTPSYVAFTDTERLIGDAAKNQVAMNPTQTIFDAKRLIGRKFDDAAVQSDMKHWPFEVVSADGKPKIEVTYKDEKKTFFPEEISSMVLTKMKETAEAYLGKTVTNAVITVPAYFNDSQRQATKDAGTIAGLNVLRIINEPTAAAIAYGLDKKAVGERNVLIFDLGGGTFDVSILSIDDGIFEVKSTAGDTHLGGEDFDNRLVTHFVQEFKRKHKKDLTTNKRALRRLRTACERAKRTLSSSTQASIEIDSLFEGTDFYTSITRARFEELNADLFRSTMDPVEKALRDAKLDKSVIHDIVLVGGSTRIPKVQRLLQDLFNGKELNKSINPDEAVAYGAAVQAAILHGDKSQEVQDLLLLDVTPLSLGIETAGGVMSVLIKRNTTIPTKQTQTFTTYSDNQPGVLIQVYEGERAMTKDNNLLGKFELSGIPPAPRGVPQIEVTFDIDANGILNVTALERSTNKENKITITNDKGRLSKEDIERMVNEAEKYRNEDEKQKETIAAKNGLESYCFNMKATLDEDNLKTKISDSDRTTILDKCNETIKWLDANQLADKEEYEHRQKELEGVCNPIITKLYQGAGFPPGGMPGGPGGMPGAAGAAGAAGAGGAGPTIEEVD
UniProt P82910: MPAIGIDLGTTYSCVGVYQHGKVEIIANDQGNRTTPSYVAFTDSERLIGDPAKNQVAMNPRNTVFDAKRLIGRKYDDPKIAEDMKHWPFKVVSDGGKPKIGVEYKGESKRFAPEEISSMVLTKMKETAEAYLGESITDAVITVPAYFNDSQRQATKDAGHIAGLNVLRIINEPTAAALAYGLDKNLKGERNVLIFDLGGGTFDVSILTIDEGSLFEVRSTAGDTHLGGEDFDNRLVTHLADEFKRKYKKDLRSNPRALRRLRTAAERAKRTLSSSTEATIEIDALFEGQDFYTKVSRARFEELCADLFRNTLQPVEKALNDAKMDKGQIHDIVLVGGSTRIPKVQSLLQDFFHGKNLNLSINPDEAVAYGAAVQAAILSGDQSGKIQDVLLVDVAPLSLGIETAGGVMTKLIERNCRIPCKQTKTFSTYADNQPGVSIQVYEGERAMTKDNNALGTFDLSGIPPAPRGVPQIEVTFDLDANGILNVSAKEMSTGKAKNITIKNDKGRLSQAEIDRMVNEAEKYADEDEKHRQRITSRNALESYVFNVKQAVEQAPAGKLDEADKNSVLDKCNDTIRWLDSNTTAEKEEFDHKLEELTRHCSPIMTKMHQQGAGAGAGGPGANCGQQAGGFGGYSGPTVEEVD

For one test, the target named is Orb2A (Drosophila) (UniProt Q9VSR3). As to the kind of experiment: co-IP; S2 cells cotransfected with untagged Orb2A (or Orb2B) and an HA-tagged Hsp40 or Flag-tagged Hsp70; lysate (150 mM NaCl, 50 mM Tris, 1% NP40) with anti-Orb2 antibody and Protein-A beads, 4°C; blot with anti-HA or anti-Flag; control IP with beads only.
Another test addresses Mrj-RFP (Drosophila) (UniProt Q7JUZ6). As to the kind of experiment: co-IP; S2 cells cotransfected with Mrj-RFP (or Mrj H31Q-RFP) and an HA-, Flag- or GFP-tagged partner; Mrj-RFP immunoprecipitated (anti-RFP, RFPTrap beads); blot for the partner.
The target in the next test is GST-Mrj (Drosophila) (UniProt Q7JUZ6). Description: pull-down; GST-Mrj bound to Glutathione beads, incubated overnight with purified Orb2A-His (E. coli) or Orb2A-GFP-His (Sf9); eluted with 40 mM reduced Glutathione; blot with anti-Orb2 and anti-Mrj; both purified.
For test [1], the target named is endogenous Mrj (Drosophila (endogenous in fly heads)) (UniProt Q7JUZ6). As to the kind of experiment: co-IP; 100 to 150 adult fly heads, lysate (150 mM NaCl, 50 mM Tris, 1% NP40) with anti-Mrj serum and Protein-A beads, 4°C; immunoprecipitate run in SDS-PAGE and SDD-AGE and probed with anti-Orb2.

These are yes or no findings as the source states them, for the method shown. Binding calls can cover weak binding; strength is not graded here. For part of these data: In cells and extracts the contact can be indirect.

As to CG7130 (from UniProt Q9VNW0), the binding entry with Orb2A (Drosophila) is recorded as “binds”.

As for DroJ2 (from UniProt Q9VFV9), the binding entry with Orb2A (Drosophila) was “binds”.

Consider Hsc70-4 (from UniProt P11147 1-651), for which, in the test with Mrj-RFP (Drosophila), the binding entry was “binds”.

Hsp70Aa (from UniProt P82910 1-642): the binding result with Mrj-RFP (Drosophila) is reported as “binds”.

Take Orb2A-GFP (from UniProt Q9VSR3-2 1-551): the binding result with Mrj-RFP (Drosophila) is recorded as “binds”.

Regarding “Orb2A-GFP-His (from UniProt Q9VSR3-2 1-551)”, the binding entry in the test with GST-Mrj (Drosophila) is reported as “binds”.

With Orb2A-His (from UniProt Q9VSR3-2 1-551), the binding result in the test with GST-Mrj (Drosophila) is on record as “binds”.

As to Orb2B-GFP (from UniProt Q9VSR3-1 1-704), the binding result with Mrj-RFP (Drosophila) is “binds”.

Take “monomeric Orb2B (from UniProt Q9VSR3-1 1-704)”: in test [1], the binding entry is recorded as “binds”.
